Here are results for one substance from PMC11610131.

By UniProt entry, the sequences of proteins in these tests, tags left out. Where a name states a change or a piece, a line headed by the entry shows the natural chain unless it says otherwise. Residues count along the entry.
UniProt Q9NZQ7, residues 19-290: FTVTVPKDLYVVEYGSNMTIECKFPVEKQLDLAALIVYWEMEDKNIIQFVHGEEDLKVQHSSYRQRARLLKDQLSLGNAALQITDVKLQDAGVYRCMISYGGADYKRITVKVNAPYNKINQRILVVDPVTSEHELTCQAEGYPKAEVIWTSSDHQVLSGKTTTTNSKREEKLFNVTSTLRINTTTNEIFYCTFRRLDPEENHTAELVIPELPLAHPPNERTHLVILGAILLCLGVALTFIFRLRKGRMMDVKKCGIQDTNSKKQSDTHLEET
UniProt P03956: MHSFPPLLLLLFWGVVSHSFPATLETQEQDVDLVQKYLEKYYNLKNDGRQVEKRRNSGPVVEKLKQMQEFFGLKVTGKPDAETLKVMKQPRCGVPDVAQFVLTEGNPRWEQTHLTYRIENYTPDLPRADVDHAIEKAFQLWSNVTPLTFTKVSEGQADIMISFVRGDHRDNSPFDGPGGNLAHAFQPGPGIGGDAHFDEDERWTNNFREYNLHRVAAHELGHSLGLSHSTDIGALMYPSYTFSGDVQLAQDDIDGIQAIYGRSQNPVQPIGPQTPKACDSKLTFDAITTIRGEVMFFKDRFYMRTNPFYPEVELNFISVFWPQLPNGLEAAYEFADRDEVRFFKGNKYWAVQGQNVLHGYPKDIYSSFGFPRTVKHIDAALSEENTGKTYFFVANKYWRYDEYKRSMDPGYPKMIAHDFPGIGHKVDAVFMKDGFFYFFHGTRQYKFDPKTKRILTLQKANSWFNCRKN

These are yes or no findings as the source states them, for the method shown. In cells and extracts the contact can be indirect. A result given as binding can be weak or reduced; the word gives no strength.

This test has as its target Programmed cell death ligand 1 (human (endogenous in SAS and SCC15)) (UniProt Q9NZQ7). In words: co-IP; total protein of SAS/SCC15 cells; immunoprecipitated with anti-MMP1 antibody and blotted with anti-PD-L1 antibody, and the reverse (IP anti-PD-L1, blot anti-MMP1).

Take “Matrix metalloproteinase-1 (from UniProt P03956) (enzyme)”: the binding entry is reported as “binds”.
